This is one part of the list. Shown are side measurements of this screen, not its main read-out; they come without a call. Compounds called inactive in the main read-out are mostly missing here. Words in brackets tell the shape of the fitted curve; partial curves, single points and poor fits give uncertain potencies.
Assay: qHTS Assay for Lipid Storage Modulators in Drosophila S3 Cells;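 on cell number change: cells counted by Cell Tracker Red CMTPX staining in the red channel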
Settings: BODIPY lipid droplet fluorescence, 18-24 h; for cell number change: measured here: cell count max response, cells fed with added oleic acid
Outline: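 Drosophila S3 cells loaded with oleic acid (400 uM, as added) and compounds at several concentrations; lipid droplets imaged by 488-nm laser-scanning cytometry, 500–530 nm intensity and object ratio to cell channel. Percent activity normalized to 20 uM Triacsin C.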

[1] = measured here: cell number channel AC50, cells fed with added oleic acid
[2] = measured here: lipid fluorescence (Fed channel) AC50, cells fed with added oleic acid

SMILES	cell number change [%]	AC50 [1]	AC50 [2]
CCC1c2ccc(C)n2CCN1C(=O)Nc1ccc(F)cc1 (stereo unspecified)	-3.06		
Cc1[nH]c(C)c(C(=O)/C=C/c2ccc([N+](=O)[O-])cc2)c1C	-47.3	13 µM [falling, single point]	
O=C(COc1ccc2c3c(c(=O)oc2c1)CCC3)NCc1ccncc1	17.1		29.1 µM [rising, single point]
COc1ccc(/C(O)=C2\C(=O)C(=O)N(CCN(C)C)C2c2cccc(OC)c2OC)cc1 (stereo unspecified)	30.5	0.651 µM [rising, full curve, poor fit]	0.411 µM [falling, single point]
Cc1ccc(C(=O)NCCN(C)C)cc1C			23.1 µM [falling, single point]
O=C1NCCCN1Cc1ccc(Cl)cc1	-33.3	29.1 µM [falling, single point]	
O=C(COc1ccccc1)Nc1cc(NC(=O)COc2ccccc2)cc(C(=O)O)c1	14.6		
O=C(N/N=C/c1c(O)n(-c2ccc(Cl)cn2)c(=O)c2ccccc12)c1ccncc1	-19.6		0.651 µM [falling, partial curve, poor fit]
O=C(O)CCN=CC1=C(O)CC(c2ccccc2)CC1=O (stereo unspecified)			1.16 µM [falling, full curve]
O=C(Nc1ccc(Cl)cc1F)c1ccc(COc2c(F)c(F)c(F)c(F)c2F)o1	-10.6		0.000164 µM [falling, full curve, poor fit]
Cc1cc(=O)n2c3c(cccc13)CCC2	8.68		9.2 µM [rising, partial curve, poor fit]
COc1cc(/C=N/N=C2/NC(=O)C(c3ccccc3)S2)ccc1O (stereo unspecified)		2.31 µM [falling, single point]	
O=[N+]([O-])c1ccc(S(=O)(=O)Nc2cccc(-c3ccc(N4CCCC4)nn3)c2)cc1	43.9	25.9 µM [rising, single point]	
Cc1ccn2cc(CNS(=O)(=O)c3ccc4ccccc4c3)nc2c1	-5.78		
CC(=O)c1cccc(NC(=O)Cc2cccs2)c1	4.66		
O=C(/C=C/Nc1ccc(Cc2ccc(N/C=C/C(=O)C(F)(F)F)cc2)cc1)C(F)(F)F	-50.8	7.31 µM [falling, partial curve]	8.2 µM [falling, partial curve]
O=C(Nc1nc(-c2ccncc2)cs1)c1ccc(S(=O)(=O)N2CCOCC2)cc1	11.4		
Cc1ccc(C(=O)N2CCCC(C(=O)c3ccc(Cl)cc3C)C2)cn1 (stereo unspecified)	14.9		0.411 µM [falling, partial curve, poor fit]
Cc1nc2ccc(NS(=O)(=O)c3ccc(F)c(F)c3)cc2s1	-22.3		
COc1nc(OCCNC(=O)Nc2ccccc2)nc(N(C)C)n1			4.61 µM [falling, full curve, poor fit]
O=c1oc2ccccc2n1Cc1cccc(Cl)c1	-50.6		29.1 µM [falling, single point]

SMILES	cell number change [%]	AC50 [1]	AC50 [2]
CC1=NN(C(=O)CSCc2ccccc2)C(O)(c2ccc(F)cc2)C1 (stereo unspecified)	-1.85		
Cc1ccc(C(=O)O)cc1NC(=S)NCCc1ccccc1		1.46 µM [rising, full curve, poor fit]	
Cc1cc(C)c(NC(=O)C2CCCN2CCC(C)C)c(C)c1 (stereo unspecified)	-28.1		32.6 µM [falling, single point]
Cc1ccc(C2=N/C(=C\N3CCCCC3)C(=O)O2)cc1	8.66		6.51 µM [rising, full curve, poor fit]
O=C(CCN1CCOCC1)c1ccc(Br)cc1	-42.1	18.4 µM [falling, single point]	
O=C(Cc1ccc(Cl)c(Cl)c1)Nc1ccc(SC(F)F)cc1	-81.4	32.6 µM [falling, partial curve]	25.9 µM [falling, partial curve, poor fit]
NC(=O)c1ccccc1OCc1nc2ccccc2s1	-5.13		0.103 µM [rising, partial curve, poor fit]
CCC(c1nnnn1C(C)(C)C)N(Cc1ccco1)Cc1cc2cccc(C)c2[nH]c1=O (stereo unspecified)	34.3	0.82 µM [rising, full curve, poor fit]	1.84 µM [rising, partial curve]
O=S(=O)(c1ccc(SCCO)nc1)N1CCOCC1	-47.2	58 µM [falling, partial curve, poor fit]	3.66 µM [falling, full curve]
CN(CC(=O)Nc1sc2c(c1C#N)CCCCC2)Cc1nc2ccccc2c(=O)[nH]1	17.9		
CCCCCN(C(=O)CCC(=O)OCC(=O)NC1CCC(C)CC1)c1c(N)n(CCCC)c(=O)[nH]c1=O (stereo unspecified)	1.02	6.51 µM [falling, single point]	6.51 µM [falling, single point]
CN(C(=O)CSc1nnc(-c2ccccc2F)o1)c1ccccc1	94.5		
Cc1ccc(C(=O)OCC(=O)c2ccc[nH]2)s1		0.731 µM [falling, single point]	0.651 µM [falling, partial curve, poor fit]
Cc1ccc(OC(=O)c2cc(=O)c3ccccc3o2)cc1	-21.5		
CCN(CCCNC(=O)c1ccc2c(c1)NC(=O)CN2C)c1cccc(C)c1	20		29.1 µM [rising, single point]
Cc1cc(O)c(-c2cc(C(=O)NCCc3ccc(S(N)(=O)=O)cc3)[nH]n2)cc1C	41.2	0.517 µM [rising, full curve, poor fit]	3.66 µM [rising, partial curve]
O=C(N/N=C/c1ccc(O)cc1O)NC12CC3CC(CC(C3)C1)C2	-20.8		29.1 µM [rising, single point]
O=C(Nc1cccnc1)c1cc(-c2cccnc2)nc2ccc(Br)cc12	-6.18		0.13 µM [falling, full curve, poor fit]
CCOC(=O)CSc1nc2c(sc(=S)n2-c2ccccc2)c(=O)[nH]1		3.26 µM [rising, single point]	
Cc1ccc2c(c1)N(CC(=O)NCCc1ccccc1)C(=O)c1cccnc1O2	13.5		0.92 µM [falling, partial curve, poor fit]
Cc1ccc2c(N)c(C)ccc2c1	20.6		

SMILES	cell number change [%]	AC50 [1]	AC50 [2]
O=[N+]([O-])c1ccc(/C=N/NC2=NS(=O)(=O)c3ccccc32)cc1	22.2		
O=C(O)c1ccccc1C(=O)NCc1ccc(F)cc1	14.2		
O=C(Cc1csc(-c2ccccc2)n1)Nc1ccc(C(F)(F)F)cc1			20.6 µM [falling, single point]
COc1cc2c(cc1NC(=O)CSc1nnc(Cc3cccs3)n1Cc1ccco1)oc1ccccc12	68.4	9.2 µM [rising, partial curve]	18.4 µM [rising, partial curve]
CC1(C)C[C@@H]2C[C@@](C)(CN2C(=O)c2ccccc2)C1	-18.8		3.66 µM [falling, full curve]
CCn1c(C2CCN(S(=O)(=O)c3ccc(OC)cc3)CC2)n[nH]c1=S	-2.77		0.116 µM [falling, full curve, poor fit]
CCc1cc2c(=O)n(Cc3ccco3)c(SCc3c(C)noc3C)nc2s1			3.26 µM [rising, partial curve]
CCCCc1ccc(NC(=O)CSc2nc3ncccc3[nH]2)cc1	14		20.6 µM [rising, single point]
CCCS(=O)(=O)N1CCCC(C(=O)NCCN(C)Cc2ccccc2)C1 (stereo unspecified)	-17		0.184 µM [falling, full curve, poor fit]
CCOC(=O)C1=NN(C(C)=O)C2(CC(=O)N(c3ccc(C)c(C)c3)C2=O)C1 (stereo unspecified)	6.51		20.6 µM [falling, single point]
COc1ccc(-n2ccnc2SCC(=O)NC2CCCC2)cc1	3.35		
COc1ccc(CNC(=O)C(=O)NCC2OCCN2S(=O)(=O)c2ccc(F)cc2)cc1 (stereo unspecified)	19.5		0.58 µM [falling, single point]
COc1cc(F)c(C2=CC(=O)C[C@H](c3ccc(Cl)cc3)C2)cc1F	3.5		0.58 µM [falling, single point]
CCOC(=O)N1CCN(C(=O)CSCC(=O)Nc2nc(-c3ccc(-c4ccccc4)cc3)cs2)CC1	-55.5	29.1 µM [falling, single point]	
CCOC(=O)C1CCCN(C(=S)NC(=O)/C=C/c2ccc(F)cc2)C1 (stereo unspecified)	23.7		23.1 µM [rising, partial curve]
CC(CCCC(C)(C)O)NC(=O)c1ccc2oc(CCc3ccccc3)nc2c1 (stereo unspecified)	6.08		6.51 µM [rising, single point]
CCc1ccccc1NC(=O)CN1CCN(C(=O)CN2C(=O)NC3(CCCC3)C2=O)CC1	-33.3	0.0116 µM [falling, full curve, poor fit]	20.6 µM [falling, single point]
COCCCNc1nc(N)c([N+](=O)[O-])c(Nc2cc(OC)ccc2OC)n1	39.8	29.1 µM [rising, single point]	23.1 µM [rising, single point]
C[C@@H](CSc1ccccc1)CN1CC[C@H](O)CCC1=O	-19.8		6.51 µM [rising, single point]
Cc1ccc(OCC(=O)N/N=C\c2ccc(O)c([N+](=O)[O-])c2)c([N+](=O)[O-])c1			29.1 µM [rising, single point]

4 of the compounds above, in markdown:

| SMILES | cell number change [%] | AC50 [1] | AC50 [2] |
| --- | --- | --- | --- |
| CCC1c2ccc(C)n2CCN1C(=O)Nc1ccc(F)cc1 (stereo unspecified) | -3.06 |  |  |
| Cc1ccc(C(=O)NCCN(C)C)cc1C |  |  | 23.1 µM [falling, single point] |
| Cc1ccc(C2=N/C(=C\N3CCCCC3)C(=O)O2)cc1 | 8.66 |  | 6.51 µM [rising, full curve, poor fit] |
| CCOC(=O)C1=NN(C(C)=O)C2(CC(=O)N(c3ccc(C)c(C)c3)C2=O)C1 (stereo unspecified) | 6.51 |  | 20.6 µM [falling, single point] |

Reference: PubChem BioAssay AID2685 (National Center for Advancing Translational Sciences (NCATS), 2010)
